Experimental data as given in patent US11504425B2, “Amphiphilic oligodeoxynucleotide conjugates as adjuvant enhancers” (WAYNE STATE UNIVERSITY, priority 2019, dated 2022).
For at least one compound, name, drawing or mass did not settle the structure.

Target: T1, mouse TLR7 (mTLR7) (Mus musculus, UniProt P58681)
T1 construct: host or cells: HEK-Blue-mTLR7 (HEK293)
T1 sequence (P58681 27-1050): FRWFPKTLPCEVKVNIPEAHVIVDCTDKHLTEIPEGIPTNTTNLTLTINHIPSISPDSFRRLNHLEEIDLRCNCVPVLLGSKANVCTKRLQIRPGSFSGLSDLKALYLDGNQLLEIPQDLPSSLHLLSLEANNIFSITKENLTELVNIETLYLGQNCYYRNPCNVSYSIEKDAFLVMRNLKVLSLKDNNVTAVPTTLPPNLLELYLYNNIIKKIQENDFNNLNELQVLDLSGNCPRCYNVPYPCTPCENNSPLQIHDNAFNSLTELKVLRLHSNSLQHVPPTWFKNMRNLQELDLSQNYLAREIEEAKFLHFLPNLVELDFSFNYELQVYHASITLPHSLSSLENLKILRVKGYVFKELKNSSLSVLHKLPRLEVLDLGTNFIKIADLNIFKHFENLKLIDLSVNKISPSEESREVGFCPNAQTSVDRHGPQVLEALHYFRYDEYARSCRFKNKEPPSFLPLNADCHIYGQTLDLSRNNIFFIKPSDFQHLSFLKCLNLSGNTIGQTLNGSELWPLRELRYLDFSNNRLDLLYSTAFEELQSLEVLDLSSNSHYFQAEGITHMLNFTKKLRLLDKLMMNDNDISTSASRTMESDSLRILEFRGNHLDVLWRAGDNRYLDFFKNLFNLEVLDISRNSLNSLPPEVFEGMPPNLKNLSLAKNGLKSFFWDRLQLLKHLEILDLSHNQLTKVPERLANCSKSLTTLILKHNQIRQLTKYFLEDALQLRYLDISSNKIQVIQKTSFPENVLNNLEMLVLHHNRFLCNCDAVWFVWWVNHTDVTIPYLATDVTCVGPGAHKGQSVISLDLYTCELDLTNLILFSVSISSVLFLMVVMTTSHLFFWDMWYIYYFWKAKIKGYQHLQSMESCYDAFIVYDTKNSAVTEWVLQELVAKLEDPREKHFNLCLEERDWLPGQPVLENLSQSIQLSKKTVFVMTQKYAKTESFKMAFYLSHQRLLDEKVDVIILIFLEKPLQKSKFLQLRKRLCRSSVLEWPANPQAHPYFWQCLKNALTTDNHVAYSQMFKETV
Assay: HEK mTLR7 reporter cells NF-κB/SEAP
Format: cell-based
Conditions: soluble ligand alone, 24 h
Method: HEK-Blue™-mTLR7, mTLR8, hTLR7, hTLR8, and RAW-Blue™ cells were purchased from InvivoGen and were used to evaluate bioactivities of lipo ODNs and TLR 7/8 ligands in vitro. All these cell lines were cultured with DMEM supplemented with 10% FBS, 1% P/S and 100 μg/mL Normocin at 37° C. with 5% CO2. […] After incubating for 24 h, SEAP levels were quantified by developing supernatants with QuantiBlue™ substrate for 1 h and reading absorption at 620 nm, following manufacturer's instructions.
Raw Blue cells which respond to both murine TLR-7 and TLR-8 are also included to assess the overall modulatory effect. half-maximal effective concentration (EC50) and potency of several classic TLR7/8 ligands were evaluated in murine TLR7 and TLR8 reporter cells.

SMILES: CCOCc1nc2c(N)nc3ccccc3c2n1CC(C)(C)O [R848, resiquimod]
- mTLR7 activation by the ligand alone: activated mTLR-7 at different concentrations
